# Experimental data taken from PubChem BioAssay AID1487 (National Center for Advancing Translational Sciences (NCATS), 2009).
# The other results are listed elsewhere or left out. Shown are side measurements of this screen, not its main read-out; they come without a call. Most of these compounds were active or inconclusive in the main read-out, so they are no random draw. Words in brackets tell the shape of the fitted curve; partial curves, single points and poor fits give uncertain potencies.
# Test: qHTS Assay for Modulators of Lamin A Splicing
# Settings: HeLa LMNA splicing GFP/RFP minigene ratio, 48 h
# How it was run: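 Read-out is the ratio of GFP to DsRed2 object intensity, acquired by 488 nm laser-scanning cytometry on HeLa lamin A-EGFP minigene reporter cells. Compound incubation 48 hrs at 37 °C in Opti-MEM with 2% FBS; DMSO 0.5% final.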
# [1] = measured here: RFP viability control channel
# [2] = measured here: GFP splicing reporter channel
Compound,AC50 [1],AC50 [2]
c1ccc(-c2csc3ncnc(NCCCN4CCOCC4)c23)cc1,"25.1 µM [rising, single point]",
NC(=O)c1ccc(-c2ncc(-c3ccccc3)o2)cc1,"35.5 µM [falling, single point]",
Cc1ccc(S(=O)(=O)N2CCN(Cc3cc(C(C)C)ccc3O)CC2)cc1,"22.4 µM [rising, single point]",
COc1ccc(N2C(=O)CSC2c2cccs2)cc1 (configuration not stated),,"35.5 µM [rising, single point]"
Cc1nnc(Sc2cc(C(=O)NCCCN(C)Cc3ccccc3)c3ccccc3n2)s1,"28.2 µM [rising, single point]",
O=C(CSc1ncn[nH]1)Nc1ccc(Cl)c(Cl)c1,"12.6 µM [rising, partial curve, poor fit]",
Cc1ccc(C(=O)/C=C/c2ccccc2)o1,"35.5 µM [falling, single point]","35.5 µM [falling, single point]"
CCOC(=O)CCSCC(=O)Nc1cc(C)on1,"31.6 µM [rising, single point]","22.4 µM [rising, single point]"
Cc1ccc(-c2c[n+](CC(=O)Nc3cc(=O)n(C)c(=O)n3C)c3n2CCC3)cc1,"11.2 µM [rising, partial curve]",
O=C(Nc1ccc(Nc2ccccc2)cc1)c1ccc(Br)o1,"31.6 µM [rising, single point]","22.4 µM [rising, single point]"
Cc1ccc(NC(=S)NCC2CCN(C(C)c3ccccc3)C2)cc1 (configuration not stated),"1.26 µM [falling, full curve, poor fit]",
Cc1c(C#N)c(NC(=O)CCl)n(Cc2cccs2)c1C,"25.1 µM [falling, single point]",
Cc1[nH]c2ccccc2c1C(=O)CSc1ccc(F)cc1,"14.1 µM [rising, single point]","12.6 µM [rising, partial curve, poor fit]"
OCCC1CN(Cc2nc3c(s2)CCCC3)CCN1Cc1ccsc1 (configuration not stated),"11.2 µM [falling, partial curve, poor fit]","11.2 µM [falling, partial curve]"
CCCNc1nc2c(c(=O)n(C)c(=O)n2C)n1CCc1ccccc1,"7.94 µM [rising, partial curve]","2.51 µM [rising, full curve, poor fit]"
Cn1c(CCN2CCCCC2)nc2cc(NC(=O)NC3CCCCC3)ccc21,"14.1 µM [rising, single point]",

# No new results follow: an excerpt of the list.
Compound,AC50 [1],AC50 [2]
Cc1ccc(-c2c[n+](CC(=O)Nc3cc(=O)n(C)c(=O)n3C)c3n2CCC3)cc1,"11.2 µM [rising, partial curve]",
O=C(Nc1ccc(Nc2ccccc2)cc1)c1ccc(Br)o1,"31.6 µM [rising, single point]","22.4 µM [rising, single point]"
